{
  "sequences": {"note": "The chains behind the UniProt entries cited, without tags or fusion partners. Where a name states a change or a piece, a line headed by the entry shows the natural chain unless it says otherwise.", "UniProt Q96KQ7": "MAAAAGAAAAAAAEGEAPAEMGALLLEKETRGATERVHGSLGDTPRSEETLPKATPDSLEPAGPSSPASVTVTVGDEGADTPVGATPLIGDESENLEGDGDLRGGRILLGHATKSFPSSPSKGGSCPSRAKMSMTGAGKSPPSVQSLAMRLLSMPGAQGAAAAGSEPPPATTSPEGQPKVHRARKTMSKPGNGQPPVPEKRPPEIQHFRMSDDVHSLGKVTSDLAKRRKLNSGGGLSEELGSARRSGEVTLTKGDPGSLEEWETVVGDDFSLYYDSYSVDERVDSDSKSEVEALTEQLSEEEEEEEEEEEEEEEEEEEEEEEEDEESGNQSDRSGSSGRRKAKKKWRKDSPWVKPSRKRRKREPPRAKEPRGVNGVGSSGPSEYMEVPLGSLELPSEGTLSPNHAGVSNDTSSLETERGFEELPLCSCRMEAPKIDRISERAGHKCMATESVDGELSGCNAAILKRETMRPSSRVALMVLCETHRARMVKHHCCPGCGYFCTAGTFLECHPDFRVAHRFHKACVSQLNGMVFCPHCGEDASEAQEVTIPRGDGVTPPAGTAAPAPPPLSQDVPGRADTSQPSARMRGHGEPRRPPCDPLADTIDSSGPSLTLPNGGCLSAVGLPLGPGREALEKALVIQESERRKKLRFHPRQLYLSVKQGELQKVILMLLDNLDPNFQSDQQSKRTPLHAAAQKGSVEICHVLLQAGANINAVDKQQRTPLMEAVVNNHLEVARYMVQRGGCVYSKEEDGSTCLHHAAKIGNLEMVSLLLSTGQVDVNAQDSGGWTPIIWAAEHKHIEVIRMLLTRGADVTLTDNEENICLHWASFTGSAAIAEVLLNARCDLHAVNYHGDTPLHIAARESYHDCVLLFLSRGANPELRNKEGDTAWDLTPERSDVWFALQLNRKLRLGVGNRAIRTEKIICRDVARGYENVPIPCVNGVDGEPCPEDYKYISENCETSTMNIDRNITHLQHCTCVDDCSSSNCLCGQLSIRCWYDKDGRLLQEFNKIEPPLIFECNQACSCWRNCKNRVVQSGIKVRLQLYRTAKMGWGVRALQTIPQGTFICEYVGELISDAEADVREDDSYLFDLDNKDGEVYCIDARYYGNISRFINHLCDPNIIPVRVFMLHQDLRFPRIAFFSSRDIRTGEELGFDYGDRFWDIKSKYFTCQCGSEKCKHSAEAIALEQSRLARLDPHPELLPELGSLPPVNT", "UniProt P04150": "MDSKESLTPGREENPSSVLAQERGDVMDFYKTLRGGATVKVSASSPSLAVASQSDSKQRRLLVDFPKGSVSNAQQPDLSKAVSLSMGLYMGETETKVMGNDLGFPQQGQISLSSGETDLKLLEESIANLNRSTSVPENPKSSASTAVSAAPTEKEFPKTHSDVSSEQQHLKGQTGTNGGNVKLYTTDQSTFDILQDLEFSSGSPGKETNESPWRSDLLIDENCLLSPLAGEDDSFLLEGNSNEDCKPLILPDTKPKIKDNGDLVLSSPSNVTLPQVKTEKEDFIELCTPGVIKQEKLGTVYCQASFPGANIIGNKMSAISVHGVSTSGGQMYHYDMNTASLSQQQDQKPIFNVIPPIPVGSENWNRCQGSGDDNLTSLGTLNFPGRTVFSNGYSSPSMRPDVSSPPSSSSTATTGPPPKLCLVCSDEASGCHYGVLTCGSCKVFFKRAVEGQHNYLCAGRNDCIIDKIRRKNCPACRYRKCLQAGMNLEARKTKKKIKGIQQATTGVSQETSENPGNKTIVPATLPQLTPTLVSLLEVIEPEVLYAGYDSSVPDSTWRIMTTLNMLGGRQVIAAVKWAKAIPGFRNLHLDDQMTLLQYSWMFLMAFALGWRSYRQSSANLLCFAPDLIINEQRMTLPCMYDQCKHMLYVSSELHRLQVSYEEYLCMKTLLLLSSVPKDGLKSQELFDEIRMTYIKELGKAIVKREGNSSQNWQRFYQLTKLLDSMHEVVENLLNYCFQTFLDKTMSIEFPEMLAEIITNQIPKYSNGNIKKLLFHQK"},
  "source": "paper PMC5833452",
  "biological_target": "G9A (human (endogenous in BGC-823)) (UniProt Q96KQ7)",
  "test": "co-IP; endogenous G9A, GR and P300 immunoprecipitated from BGC-823 cells stimulated with DEX, examined by western blotting; protocol as in ref. 32",
  "note": "No constants are given. Whether binding was seen depends on the method and setting. In cells and extracts the contact can be indirect. Some binding calls cover weakened binding; strength is not graded here.",
  "data": [
    {"substance": "GR (from UniProt P04150 1-777)", "values": [
      {"measurement": "binding", "value": "binds"}
    ]}
  ]
}
